The source of these data is PMC7862700.

The other results are listed elsewhere or left out. Construct or isoform of the protein are uncertain.

This test deals with T1, ETS1 (UniProt P14921).
T1 sequence: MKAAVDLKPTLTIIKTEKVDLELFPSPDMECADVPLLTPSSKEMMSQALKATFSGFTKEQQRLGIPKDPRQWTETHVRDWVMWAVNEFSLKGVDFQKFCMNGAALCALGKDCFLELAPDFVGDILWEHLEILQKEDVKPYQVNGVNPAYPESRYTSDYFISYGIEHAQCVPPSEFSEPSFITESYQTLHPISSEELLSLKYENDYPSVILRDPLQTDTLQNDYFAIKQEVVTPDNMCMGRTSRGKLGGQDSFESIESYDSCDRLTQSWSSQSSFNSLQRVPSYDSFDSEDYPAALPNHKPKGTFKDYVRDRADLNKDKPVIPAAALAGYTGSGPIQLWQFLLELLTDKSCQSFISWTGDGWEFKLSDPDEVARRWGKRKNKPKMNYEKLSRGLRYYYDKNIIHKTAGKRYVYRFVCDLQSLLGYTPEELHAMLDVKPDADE
Put plainly: DAPPL (digital affinity profiling via proximity ligation, sequencing). Particulars: 10 mM Tris-HCl pH 7.5, 50 mM NaCl, 1 mM DTT, 4% glycerol, room temperature, 30 min; GST-TFs on glutathione beads, 16-mer random dsDNA library, 0.1% …; high values mean tight binding; double strand, one strand shown; scale: fold enrichment (6-mer frequency, TF over GST control).
Sequence CACATT returned a binding signal of 1.21.
With CCGGCA the figure was 1.42; with GTTGCA, 1.19; with CGAAAA, 1.15.
With TACTCT, the binding signal was 1.32.
For the sequence TCGAAT, the binding signal stood at 1.11.
Take ACCGGA: the binding signal turned out to be 2.88.
The sequence TACCTC yielded a binding signal of 1.24.
The figure for CCATAA is 1.28; for ACTAAG it is 0.991; for CGCGAC it is 1.12.
For ATCTAC, the binding signal worked out at 1.34.
AGAAAT came in with a binding signal of 1.18.
For the sequence ATTGCC, the binding signal was determined as 1.27.
AATCAT returned a binding signal of 1.12.
With TTTCCT the figure was 2.28.
TAGTAC yielded a binding signal of 1.17.
With GGATCC the figure was 1.08; with AAATTC, 1.31.
CTAATA gave a binding signal of 1.13.
Turning to ATTTAT, the binding signal is 1.39.
With AACAGG the figure was 1.2.
Take TCGTTC: the binding signal came out at 1.25.
TCTTAA yielded a binding signal of 1.26.
TTCAGC showed a binding signal of 1.18.
The sequence TCTCCC had a binding signal of 1.68.
As for CAATTG, the binding signal stood at 1.26.
Take GGCTCC: the binding signal was 1.37.
Consider CATCTG, for which the binding signal stood at 1.25.
GTTCTT showed a binding signal of 1.23.
With TTATGT the figure was 1.39; with CACCAT, 1.03.
Take CCGACC: the binding signal was 1.6.
On to ATCTCG, for which the binding signal worked out at 1.41.
The figure for TGAATT is 1.18; for AATTGC it is 1.39; for TGTACT it is 1.26.
For the sequence TGCTCT, the binding signal turned out to be 1.39.
GCTAAT yielded a binding signal of 1.12.
